Measured values from PubChem BioAssay AID1850 (Southern Research Specialized Biocontainment Screening …, 2009).

System: Salmonella Typhi PhoP-promoter GFP reporter, fluorescence, 4 h
Assay: PhoP regulon inhibitors, Salmonella typhi PhoP promoter GFP reporter, confirmatory (AID 1850)

## CNCCCC12CCC(c3ccccc31)c1ccccc12
  IC50: 116 µM
